This note sets out measurements from PMC12431657, “Discovery and mechanistic insights of dibenzoylmethane as a broad spectrum inhibitor of coronavirus” (PLOS Pathogens, 2025).

SMILES strings stand for the structures. Like-named read-outs stand apart in the source and are kept apart here. Screen size: about 3,300 compounds; about 60 (2%) showed an effect of 50% or more. This is one part of the list.

The experiment relates to HCoV-OC43. The arrangement: species or system RD; HTS, protection from HCoV-OC43 induced cell death, luminescent cell viability (CellCounting-Lite 2.0), inhibition rate. The conditions noted are these: 24 h post infection, 1 h compound pre-incubation, 10 µM, inhibitor.

As for `CCC1=C[C@@H]2CN3CCc4c([nH]c5ccccc45)[C@@](C(=O)OC)(C2)[C@@H]13` [Catharanthine], the “OC43 Inhibition rate” value was 23.2%.
Take `COc1ccc(C(C)=O)c(O)c1O` [2,3-Dihydroxy-4-methoxyacetophenone]: the “OC43 Inhibition rate” value is reported as -1.2%.
For the compound `O=c1c(O[C@@H]2O[C@H](CO)[C@@H](O)[C@H](O)[C@H]2O)c(-c2ccc(O)c(O)c2)oc2cc(O)cc(O)c12` [Isoquercetin], where the note is “OC43 Inhibition rate, 24 h”, the “OC43 Inhibition rate” value was -1.3%.
Turning to `O=c1c(O)c(-c2ccc(O)cc2)oc2cc(O)cc(O)c12` [Kaempferol], the “OC43 Inhibition rate” value is reported as -0.2%.
In the case of `COc1cc(C=O)cc(OC)c1O` [Syringaldehyde], the “OC43 Inhibition rate” value was 0%.
Still for that read-out and setting: next, `COc1cccc(C(=O)O)c1` [3-Methoxybenzoic acid]: -0.1%; `C[C@@H]1O[C@@H](O[C@H]2CC[C@]3(C=O)[C@H]4CC[C@]5(C)[C@@H](C6=CC(=O)OC6)CC[C@]5(O)[C@@H]4CC[C@]3(O)C2)[C@H](O)[C@H](O)[C@H]1O` [Convallatoxin]: 3.2%; `COC(=O)C1=CO[C@@H](O[C@@H]2O[C@H](CO)[C@@H](O)[C@H](O)[C@H]2O)[C@H]2[C@@H]1C(=O)C[C@@H]2C` [Verbenalin]: -0.1%.
Still for that read-out and setting: next, `COC(=O)C1=COC(O[C@@H]2O[C@H](CO)[C@@H](O)[C@H](O)[C@H]2O)/C(=C/C(=O)O)C1CC(=O)OCCc1ccc(O)c(O)c1` (some centres unmarked) [Oleuropeinic acid]: 0.1%; `COc1cc(OC)c2ccc(=O)oc2c1` [Citropten]: 6.8%; `N[C@H]1CONC1=O` [L-Cycloserine]: 0.1%.
The same measure, in the same setting: next, `C=C[C@@H]1C2=CCOC(=O)C2=CO[C@H]1O[C@@H]1O[C@H](CO)[C@@H](O)[C@H](O)[C@H]1O` [Gentiopicroside]: -3.9%; `c1c2c(cc3c1OCO3)-c1cc3cc4c(cc3c[n+]1CC2)OCO4` [Pseudocoptisine (chloride)]: 0.8%.
In the case of `O=c1ccoc2cc(O)cc(O)c12` [5,7-Dihydroxychromone], the “OC43 Inhibition rate” value is given as -0.3%.
`CSC[C@H]1O[C@@H](n2cnc3c(N)ncnc32)[C@H](O)[C@@H]1O` [5'-Methylthioadenosine]: the “OC43 Inhibition rate” value stood at 0.3%.
The same measure, in the same setting: next, `O=C(/C=C/c1ccc(O)c(O)c1)OC1(C(=O)O)C[C@@H](O)C(O)[C@H](O)C1` (some centres unmarked) [1-Caffeoylquinic acid]: -0.5%.
Same read-out and setting: next, `NC[C@H]1O[C@H](O[C@H]2[C@H](O)[C@@H](O[C@H]3O[C@H](CO)[C@@H](O)[C@H](N)[C@H]3O)[C@H](N)C[C@@H]2N)[C@H](N)C[C@@H]1O` [Tobramycin]: 5.3%; `Cc1cc(O)cc(O[C@@H]2O[C@H](CO)[C@@H](O)[C@H](O)[C@H]2O)c1` [Orcinol glucoside]: -0.9%.
Turning to `O=C(O)C1=CO[C@@H](O[C@@H]2O[C@H](CO)[C@@H](O)[C@H](O)[C@H]2O)[C@@H]2C(CO)=C[C@H](O)[C@H]12` [Deacetylasperulosidic Acid], the “OC43 Inhibition rate” value amounted to 0.6%.
Still for that read-out and setting: then `C[C@@H]1C(=O)O[C@H]2C[C@]34[C@@H]5OC(=O)[C@]3(O[C@@H]3OC(=O)[C@H](O)[C@@]34[C@H](C(C)(C)C)[C@H]5O)[C@]21O` [Ginkgolide J], with -1.1%; and `C[C@@H]1O[C@@H](O[C@@H]2C(=O)c3c(O)cc(O)cc3O[C@H]2c2cc(O)cc(O)c2)[C@H](O)[C@H](O)[C@H]1O` [Neosmitilbin], with 0%.
On the same count and under the same terms, then `CC(C)(O[C@@H]1O[C@H](CO)[C@@H](O)[C@H](O)[C@H]1O)[C@@H]1CC[C@](C)([C@H]2[C@@H](O)C[C@@]3(C)[C@@H]4C[C@H](O)[C@H]5C(C)(C)[C@@H](O[C@@H]6OC[C@@H](O)[C@H](O)[C@H]6O)CC[C@@]56C[C@@]46CC[C@]23C)O1` [Isoastragaloside IV], with -0.3%.
Take `Nc1ccccc1C(=O)C[C@H](N)C(=O)O` [L-Kynurenine]: the “OC43 Inhibition rate” value (OC43 Inhibition rate, 24 h) turned out to be 0.4%.
Regarding `O=C(O)CNCC(=O)O` [Iminodiacetic acid], the “OC43 Inhibition rate” value is recorded as -0.8%.
Still for that read-out and setting: next, `CC(C)CCC[C@@H](C)[C@H]1CC[C@H]2C3=CC=C4C[C@@H](O)CC[C@]4(C)[C@H]3CC[C@]12C` [7-Dehydrocholesterol]: 44.4%; `CCCCCCCCCC[C@H](C(=O)O)[C@]1(C(=O)O)CCC(=O)O1` [Spiculisporic acid]: 0.5%; `CC(C)=CCc1c(O)cc(O)c2c(=O)cc(-c3ccc(O)cc3)oc12` [Licoflavone C]: 7.3%.
On to `CC(C)(O)[C@@H]1CC[C@](C)([C@H]2[C@@H](O)C[C@@]3(C)[C@@H]4C[C@H](O)[C@H]5C(C)(C)[C@@H](O)CC[C@@]56C[C@@]46CC[C@]23C)O1` [Cycloastragenol], for which the “OC43 Inhibition rate” value is reported as 0.7%.
As for `C[C@@H]1C/C=C/C=C/C=C/C=C/[C@H](O[C@@H]2O[C@H](C)[C@@H](O)[C@H](N)[C@@H]2O)C[C@@H]2O[C@](O)(C[C@@H](O)C[C@H]3O[C@@H]3/C=C/C(=O)O1)C[C@H](O)[C@H]2C(=O)O` [Natamycin], the “OC43 Inhibition rate” value is -0.1%.
